PMC6168463, “Arc/Arg3.1 has an activity-regulated interaction with PICK1 that results in altered spatial dynamics” (Scientific Reports, 2018)
No constants are given. Whether binding was seen depends on the method and setting. For some assays here: In cells and extracts the contact can be indirect. Some entries that bind do so weakly or less than the wild type. For some assays here: Tags and fused reporters may be left off the sequences shown.

Amino acid sequences for entries named in this document (tags omitted). A change or cut given only in a name is not applied to a line headed by its entry.
UniProt P62993: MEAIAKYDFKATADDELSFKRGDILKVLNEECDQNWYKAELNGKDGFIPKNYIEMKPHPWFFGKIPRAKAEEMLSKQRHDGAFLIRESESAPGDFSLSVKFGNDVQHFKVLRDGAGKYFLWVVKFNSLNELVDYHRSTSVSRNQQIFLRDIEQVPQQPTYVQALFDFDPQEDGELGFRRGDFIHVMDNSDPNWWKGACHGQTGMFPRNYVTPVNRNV
UniProt Q9NRD5: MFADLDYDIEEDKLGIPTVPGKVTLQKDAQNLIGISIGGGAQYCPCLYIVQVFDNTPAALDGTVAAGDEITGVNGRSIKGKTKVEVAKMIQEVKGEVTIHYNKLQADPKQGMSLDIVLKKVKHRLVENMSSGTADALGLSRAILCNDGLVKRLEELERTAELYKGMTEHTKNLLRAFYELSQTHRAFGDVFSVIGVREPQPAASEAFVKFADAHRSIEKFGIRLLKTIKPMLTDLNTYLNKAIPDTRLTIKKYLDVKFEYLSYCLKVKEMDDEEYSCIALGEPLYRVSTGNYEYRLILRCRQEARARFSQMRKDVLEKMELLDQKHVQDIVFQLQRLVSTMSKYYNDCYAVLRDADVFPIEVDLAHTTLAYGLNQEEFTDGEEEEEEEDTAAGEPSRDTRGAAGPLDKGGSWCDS
UniProt Q62083: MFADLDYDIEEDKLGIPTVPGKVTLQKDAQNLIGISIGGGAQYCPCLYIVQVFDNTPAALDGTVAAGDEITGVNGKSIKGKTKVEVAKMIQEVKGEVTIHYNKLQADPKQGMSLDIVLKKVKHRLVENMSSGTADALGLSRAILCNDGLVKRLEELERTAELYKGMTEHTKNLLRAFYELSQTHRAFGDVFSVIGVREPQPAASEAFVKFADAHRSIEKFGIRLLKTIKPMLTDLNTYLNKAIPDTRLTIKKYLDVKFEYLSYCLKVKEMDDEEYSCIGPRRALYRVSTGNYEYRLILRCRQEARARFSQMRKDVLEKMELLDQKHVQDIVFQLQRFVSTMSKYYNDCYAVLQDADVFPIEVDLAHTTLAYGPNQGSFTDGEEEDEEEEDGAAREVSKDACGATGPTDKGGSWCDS

Experiments:
Arc-mCherry (mouse) = target: T1, Arc-mCherry (mouse) (UniProt Q9WV31); assay: cross-correlation raster imaging correlation spectroscopy (ccRICS); live co-transfected SH-SY5Y cells in depolarizing buffer (100 mM KCl), 15 min incubation
T1 sequence: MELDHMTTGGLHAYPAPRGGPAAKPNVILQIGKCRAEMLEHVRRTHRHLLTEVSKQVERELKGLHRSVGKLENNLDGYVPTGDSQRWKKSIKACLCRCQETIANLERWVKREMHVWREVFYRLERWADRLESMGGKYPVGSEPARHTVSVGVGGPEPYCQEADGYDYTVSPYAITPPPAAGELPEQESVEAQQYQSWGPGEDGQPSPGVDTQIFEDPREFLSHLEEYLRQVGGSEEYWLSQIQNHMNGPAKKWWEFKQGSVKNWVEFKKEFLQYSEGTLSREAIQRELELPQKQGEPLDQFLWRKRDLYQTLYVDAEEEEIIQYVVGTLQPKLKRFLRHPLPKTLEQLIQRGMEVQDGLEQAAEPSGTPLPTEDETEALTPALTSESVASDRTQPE

GST-Arc (mouse) [1] = target: T2, GST-Arc (mouse) (UniProt Q9WV31); assay: pull-down; lysate of HEK293 cells transfected with FLAG-PICK1 or FLAG-PICK1B incubated 1 h with GST-Arc or GST coupled to glutathione resin; eluted with 50 mM glutathione; immunoblot; only the target purified
T2 sequence: T1 sequence

GST-Arc (mouse) [2] = target: T2, GST-Arc (mouse); assay: pull-down; mouse brain synaptosome lysate with GST-Arc, GST or GST-Grb2 (10 µM) on glutathione resin; Western blot for PICK1; only the target purified
GST-Grb2 = GST-Grb2 (UniProt P62993); assay: as above
GST-Arc (mouse) [3] = target: T2, GST-Arc (mouse); assay: pull-down; whole mouse brain lysate incubated with GST or GST-Arc, then bound to glutathione resin; Western blot; only the target purified

## EGFP-PICK1-BAR (from UniProt Q9NRD5 140-415) (domain or fragment)
Arc-mCherry (mouse)
  binding: binds

## FLAG-PICK1 (full length) (from UniProt Q9NRD5 1-415)
GST-Arc (mouse) [1]
  binding: binds

## PICK1 (endogenous, mouse brain) (from UniProt Q62083 1-416)
GST-Arc (mouse) [2]
  binding: binds
GST-Grb2
  binding: no binding (tested: 10 µM)
GST-Arc (mouse) [3]
  binding: binds
